# Data as given in the supplement of paper PMC5949888.
# Most values lie at the floor of the assay. Slopes are relative: functional sequences can read slightly below zero.
# Tested on: Saccharomyces cerevisiae PS128 hsf1 delta, HSF1(1-493) fusion
# Test: growth estimate (transactivation domain function in HSF1 fusion, heat-shock survival) (a.u. (slope of normalised read count over time)); higher = stronger growth at 37°C, i.e. more transactivation activity
# Conditions: library: random library
row,Substance,growth estimate
1,VHRGTCRGFFVLRVSAPQ,< -0.25
2,VHRSSQPFIPAYDSSHNDQT,< -0.25
3,VHRSVRSIISRIGRYDA,-0.168
4,VHSLHRDRSGVTPGGSSFLY,< -0.25
5,VHSLSQKYGPRGTIQYRNTP,0.0603
6,VHTKDRAVGSDRGCERHGDT,< -0.25
7,VHTLPRAARRE,< -0.25
8,VHTRPSVNVSPCLYVADGFA,< -0.25
9,VHVH,-0.243
10,VHW,< -0.25
11,VHYAFLRGSFRGNYNWMHKI,< -0.25
12,VIAGNGIYPV,< -0.25
13,VIAMASRRLGGICLVQR,< -0.25
14,VICPHEWPSRTLPGKFFTSR,< -0.25
15,VIDTTRVGLRYQIAM,< -0.25
16,VIESRNQGVCFQRVPEKRQA,< -0.25
17,VIGHGDLPHKARFDFSNSLH,< -0.25
18,VIGPYGAPASALMGLGVRAQ,< -0.25
19,VIGRPVNGSR,< -0.25
20,VIGRSIWTG,< -0.25
21,VIHVFDHSVYTG,< -0.25

# 3 records drawn at random from the list so far, as already listed:
row,Substance,growth estimate
2,VHRSSQPFIPAYDSSHNDQT,< -0.25
1,VHRGTCRGFFVLRVSAPQ,< -0.25
11,VHYAFLRGSFRGNYNWMHKI,< -0.25

# Next part:

row,Substance,growth estimate
1,VIKGRLANLQDRAVLPGDTS,< -0.25
2,VIKKVLRSMGTCSNSL,< -0.25
3,VILAART,< -0.25
4,VILCARSMRHRFTGRKSREL,< -0.25
5,VILFSGGLESPSKNLTPRCV,-0.237
6,VILHEVRR,< -0.25
7,VILIRMRGM,< -0.25
8,VILRERGLALHNAGME,< -0.25
9,VIM,0.246
10,VIMLDILA,< -0.25
11,VIQK,< -0.25
12,VIQPSASYSRKEG,< -0.25
13,VIQRCMLAEGT,< -0.25
14,VIRCFFSRLRPR,< -0.25
15,VIRNMFQSVVVRANVSQGSG,< -0.25
16,VIRPGRVTRSSVTIKSPVTP,< -0.25
17,VIRPSS,< -0.25
18,VISEVLTKEKGQVQIV,< -0.25
19,VITTFLLCVNIVAC,< -0.25
20,VITVSCL,< -0.25
21,VIVAYQSSEVRTGSRSFLGH,0.285

row,Substance,growth estimate
1,VIVIKGLPC,< -0.25
2,VIVILISVFGHLWGMT,< -0.25
3,VIVLVEFNDCLRTVAQACLL,< -0.25
4,VIVSRLTQMG,< -0.25
5,VIVTSEPRRKRALAMCVHAD,< -0.25
6,VIVVG,< -0.25
7,VKDATVQILGIMQ,< -0.25
8,VKDKKVFEGHIIYYGCMIRS,< -0.25
9,VKFS,< -0.25
10,VKGELLDCSCLGIVTLHSVL,< -0.25
11,VKGNAPQALVESVWYAVRKV,< -0.25
12,VKGTALRI,-0.21
13,VKGVSKL,< -0.25
14,VKHAETALVVKVTVACALPA,< -0.25
15,VKILNTGLASEGHALDTRNE,< -0.25
16,VKLIRQIMAQPCEPRTGIRS,< -0.25
17,VKMDGGPWS,< -0.25
18,VKMWICLFFGAAG,< -0.25
19,VKPLKMKARGRYRRRCLVWG,< -0.25
20,VKQE,< -0.25
21,VKRCCDVSFPCRTHKPLIGR,< -0.25

row,Substance,growth estimate
1,VKRSLEIGVRLVVFKLTMPE,< -0.25
2,VKSGTVG,< -0.25
3,VKSNFGSYTLG,< -0.25
4,VKSSRQGSCFFQVVHYSRQG,< -0.25
5,VKVRYLMCYRGY,< -0.25
6,VKWPSGWNAKWEKAVHR,< -0.25
7,VLAPGCI,-0.202
8,VLARHSSAHPSCKARCSRKY,< -0.25
9,VLARLAVTSRWLFRYG,< -0.25
10,VLASQHLSTGHAFTVQHAGA,< -0.25
11,VLATGRLTKILFPKDPLLLP,< -0.25
12,VLAVGCTMVAHWVATITAGV,< -0.25
13,VLC,< -0.25
14,VLCFLCCRPPRNRG,< -0.25
15,VLDLPLLTPRALKARQDLA,< -0.25
16,VLDPEI,< -0.25
17,VLDR,< -0.25
18,VLEGRRELRAVECRVVL,< -0.25
